# Results reported in the supplement of paper PMC8728848.
# The list shows a part of the results.
# B1: EUL D1A first (Oryza sativa) (protein)
# chain: MFGFGHHHNQAPAAPSDPNQIFKIFCRANENYCLTVRDSAVVLAPVNPKDEHQHWFKDMRFSTKVKDGEGMPAFALVNKATGLAVKHSLGQSHPVKLVPFNPEYEDASVLWTESKDVGKGFRCIRMVNNTRLNLDAFHGDKDHGGVRDGTTVVLWEWCKGDNQSWKILPWGPEAHSSSPGAATILEQKLISEEDLNSAVDHHHHHH
# Tests used:
# Assay in all cases: glycan array binding signal (z-score within array); higher = stronger binding
# Conditions in all cases: glycan notation: IUPAC condensed, linker removed
# [1] = molecular target: Neu5Ac(a2-3)Gal(b1-4)GlcNAc(b1-6)GalNAc
# How it was run: (§1)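 The binding signal is a Z-score computed within each array. Data were drawn from 3228 arrays in the Consortium for Functional Glycomics database, restricted to those with a known protein sequence. Scores were averaged over arrays of the same protein sequence at different concentrations or buffers, and over linkers, and negative values can be taken as non-binding.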
# [2] = molecular target: Neu5Ac(a2-3)Gal(b1-4)GlcNAc(b1-6)[Gal(b1-3)]GalNAc
# How it was run: as §1
# [3] = molecular target: Neu5Ac(a2-3)Gal(b1-4)GlcNAc(b1-6)[Neu5Ac(a2-3)Gal(b1-3)]GalNAc
# How it was run: as §1
# [4] = molecular target: Neu5Ac(a2-3)Gal(b1-4)GlcNAc6S
# How it was run: as §1
# [5] = molecular target: Neu5Ac(a2-3)Gal(b1-4)[Fuc(a1-3)]GlcNAc
# How it was run: as §1
# [6] = molecular target: Neu5Ac(a2-3)Gal(b1-4)[Fuc(a1-3)]GlcNAc(b1-2)Man
# How it was run: as §1
# [7] = molecular target: Neu5Ac(a2-3)Gal(b1-4)[Fuc(a1-3)]GlcNAc(b1-3)Gal
# How it was run: as §1
# [8] = molecular target: Neu5Ac(a2-3)Gal(b1-4)[Fuc(a1-3)]GlcNAc(b1-3)Gal(b1-4)GlcNAc
# How it was run: as §1
# [9] = molecular target: Neu5Ac(a2-3)Gal(b1-4)[Fuc(a1-3)]GlcNAc(b1-3)Gal(b1-4)[Fuc(a1-3)]GlcNAc(b1-3)Gal(b1-4)[Fuc(a1-3)]GlcNAc
# How it was run: as §1
# [10] = molecular target: Neu5Ac(a2-3)Gal(b1-4)[Fuc(a1-3)]GlcNAc(b1-3)GalNAc
# How it was run: as §1
# [11] = molecular target: Neu5Ac(a2-3)Gal(b1-4)[Fuc(a1-3)]GlcNAc(b1-6)[Gal(b1-3)]GalNAc
# How it was run: as §1
# [12] = molecular target: Neu5Ac(a2-3)Gal(b1-4)[Fuc(a1-3)]GlcNAc(b1-6)[Neu5Ac(a2-3)Gal(b1-3)]GalNAc
# How it was run: as §1
# [13] = molecular target: Neu5Ac(a2-3)Gal(b1-4)[Fuc(a1-3)]GlcNAc6S
# How it was run: as §1
# [14] = molecular target: Neu5Ac(a2-3)Gal6S(b1-4)GlcNAc
# How it was run: as §1
# [15] = molecular target: Neu5Ac(a2-3)Gal6S(b1-4)[Fuc(a1-3)]GlcNAc
# How it was run: as §1
# Neu5Ac(a2-3)GalNAc = molecular target: Neu5Ac(a2-3)GalNAc
# How it was run: as §1
# [16] = molecular target: Neu5Ac(a2-3)GalNAc(b1-4)GlcNAc
# How it was run: as §1
# [17] = molecular target: Neu5Ac(a2-3)[GalNAc(b1-4)]Gal(b1-4)Glc
# How it was run: as §1
# [18] = molecular target: Neu5Ac(a2-3)[GalNAc(b1-4)]Gal(b1-4)GlcNAc
# How it was run: as §1
# [19] = molecular target: Neu5Ac(a2-3)[GalNAc(b1-4)]Gal(b1-4)GlcNAc(b1-3)GalNAc
# How it was run: as §1
# [20] = molecular target: Neu5Ac(a2-3)[Neu5Ac(a2-6)]GalNAc
# How it was run: as §1
# Neu5Ac(a2-6)Gal = molecular target: Neu5Ac(a2-6)Gal
# How it was run: as §1
# [21] = molecular target: Neu5Ac(a2-6)Gal(b1-3)GlcNAc(b1-3)[Gal(b1-4)GlcNAc(b1-6)]Gal(b1-4)Glc
# How it was run: as §1
# Neu5Ac(a2-6)Gal(b1-4)Glc = molecular target: Neu5Ac(a2-6)Gal(b1-4)Glc
# How it was run: as §1
# [22] = molecular target: Neu5Ac(a2-6)Gal(b1-4)GlcNAc
# How it was run: as §1
# [23] = molecular target: Neu5Ac(a2-6)Gal(b1-4)GlcNAc(b1-2)Man
# How it was run: as §1
# [24] = molecular target: Neu5Ac(a2-6)Gal(b1-4)GlcNAc(b1-2)Man(a1-3)Man(b1-4)GlcNAc(b1-4)GlcNAc
# How it was run: as §1
# [25] = molecular target: Neu5Ac(a2-6)Gal(b1-4)GlcNAc(b1-2)Man(a1-3)[Gal(b1-4)GlcNAc(b1-2)Man(a1-6)]Man(b1-4)GlcNAc(b1-4)GlcNAc
# How it was run: as §1
# [26] = molecular target: Neu5Ac(a2-6)Gal(b1-4)GlcNAc(b1-2)Man(a1-3)[GlcNAc(b1-2)Man(a1-6)]Man(b1-4)GlcNAc(b1-4)GlcNAc
# How it was run: as §1
# [27] = molecular target: Neu5Ac(a2-6)Gal(b1-4)GlcNAc(b1-2)Man(a1-3)[GlcNAc(b1-4)][Neu5Ac(a2-6)Gal(b1-4)GlcNAc(b1-2)Man(a1-6)]Man(b1-4)GlcNAc(b1-4)GlcNAc
# How it was run: as §1
# [28] = molecular target: Neu5Ac(a2-6)Gal(b1-4)GlcNAc(b1-2)Man(a1-3)[Man(a1-6)]Man(b1-4)GlcNAc(b1-4)GlcNAc
# How it was run: as §1
# [29] = molecular target: Neu5Ac(a2-6)Gal(b1-4)GlcNAc(b1-2)Man(a1-3)[Neu5Ac(a2-3)Gal(b1-4)GlcNAc(b1-2)Man(a1-6)]Man(b1-4)GlcNAc(b1-4)GlcNAc
# How it was run: as §1
# [30] = molecular target: Neu5Ac(a2-6)Gal(b1-4)GlcNAc(b1-2)Man(a1-3)[Neu5Ac(a2-6)Gal(b1-4)GlcNAc(b1-2)Man(a1-6)]Man(b1-4)GlcNAc(b1-4)GlcNAc
# How it was run: as §1
# [31] = molecular target: Neu5Ac(a2-6)Gal(b1-4)GlcNAc(b1-2)Man(a1-3)[Neu5Ac(a2-6)Gal(b1-4)GlcNAc(b1-2)Man(a1-6)]Man(b1-4)GlcNAc(b1-4)[Fuc(a1-6)]GlcNAc
# How it was run: as §1
# [32] = molecular target: Neu5Ac(a2-6)Gal(b1-4)GlcNAc(b1-2)Man(a1-6)Man(b1-4)GlcNAc(b1-4)GlcNAc
# How it was run: as §1
# [33] = molecular target: Neu5Ac(a2-6)Gal(b1-4)GlcNAc(b1-2)Man(a1-6)[Gal(b1-4)GlcNAc(b1-2)Man(a1-3)]Man(b1-4)GlcNAc(b1-4)GlcNAc
# How it was run: as §1
# [34] = molecular target: Neu5Ac(a2-6)Gal(b1-4)GlcNAc(b1-2)Man(a1-6)[GlcNAc(b1-2)Man(a1-3)]Man(b1-4)GlcNAc(b1-4)GlcNAc
# How it was run: as §1
# [35] = molecular target: Neu5Ac(a2-6)Gal(b1-4)GlcNAc(b1-2)Man(a1-6)[Man(a1-3)]Man(b1-4)GlcNAc(b1-4)GlcNAc
# How it was run: as §1
# [36] = molecular target: Neu5Ac(a2-6)Gal(b1-4)GlcNAc(b1-2)[Neu5Ac(a2-6)Gal(b1-4)GlcNAc(b1-4)]Man(a1-3)[GlcNAc(b1-4)][Neu5Ac(a2-6)Gal(b1-4)GlcNAc(b1-2)[Neu5Ac(a2-6)Gal(b1-4)GlcNAc(b1-6)]Man(a1-6)]Man(b1-4)GlcNAc(b1-4)GlcNAc
# How it was run: as §1
# [37] = molecular target: Neu5Ac(a2-6)Gal(b1-4)GlcNAc(b1-2)[Neu5Ac(a2-6)Gal(b1-4)GlcNAc(b1-4)]Man(a1-3)[GlcNAc(b1-4)][Neu5Ac(a2-6)Gal(b1-4)GlcNAc(b1-4)Man(a1-6)]Man(b1-4)GlcNAc(b1-4)GlcNAc
# How it was run: as §1
# [38] = molecular target: Neu5Ac(a2-6)Gal(b1-4)GlcNAc(b1-2)[Neu5Ac(a2-6)Gal(b1-4)GlcNAc(b1-6)]Man(a1-6)[Neu5Ac(a2-6)Gal(b1-4)GlcNAc(b1-2)Man(a1-3)][GlcNAc(b1-4)]Man(b1-4)GlcNAc(b1-4)GlcNAc
# How it was run: as §1
# [39] = molecular target: Neu5Ac(a2-6)Gal(b1-4)GlcNAc(b1-3)Gal(b1-3)GlcNAc
# How it was run: as §1
# [40] = molecular target: Neu5Ac(a2-6)Gal(b1-4)GlcNAc(b1-3)Gal(b1-4)GlcNAc
# How it was run: as §1
# [41] = molecular target: Neu5Ac(a2-6)Gal(b1-4)GlcNAc(b1-3)Gal(b1-4)GlcNAc(b1-2)Man(a1-3)[Neu5Ac(a2-6)Gal(b1-4)GlcNAc(b1-3)Gal(b1-4)GlcNAc(b1-2)Man(a1-6)]GalNAc
# How it was run: as §1
# [42] = molecular target: Neu5Ac(a2-6)Gal(b1-4)GlcNAc(b1-3)Gal(b1-4)GlcNAc(b1-3)Gal(b1-4)GlcNAc
# How it was run: as §1
# [43] = molecular target: Neu5Ac(a2-6)Gal(b1-4)GlcNAc(b1-3)Gal(b1-4)GlcNAc(b1-3)Gal(b1-4)GlcNAc(b1-2)Man(a1-3)[Neu5Ac(a2-6)Gal(b1-4)GlcNAc(b1-3)Gal(b1-4)GlcNAc(b1-3)Gal(b1-4)GlcNAc(b1-2)Man(a1-6)]GalNAc
# How it was run: as §1
binder,measurement,setting,value
B1,glycan array binding signal (z-score),[1],-0.841
same,glycan array binding signal (z-score),[2],0.081
same,glycan array binding signal (z-score),[3],-0.446
same,glycan array binding signal (z-score),[4],-1.5
same,glycan array binding signal (z-score),[5],-0.144
same,glycan array binding signal (z-score),[6],-0.26
same,glycan array binding signal (z-score),[7],-0.866
same,glycan array binding signal (z-score),[8],0.491
same,glycan array binding signal (z-score),[9],-0.461
same,glycan array binding signal (z-score),[10],3.45
same,glycan array binding signal (z-score),[11],1.06
same,glycan array binding signal (z-score),[12],1.34
same,glycan array binding signal (z-score),[13],-0.026
same,glycan array binding signal (z-score),[14],0.281
same,glycan array binding signal (z-score),[15],0.197
same,glycan array binding signal (z-score),Neu5Ac(a2-3)GalNAc,0.123
same,glycan array binding signal (z-score),[16],-0.654
same,glycan array binding signal (z-score),[17],-1.33
same,glycan array binding signal (z-score),[18],-0.072
same,glycan array binding signal (z-score),[19],1.09
same,glycan array binding signal (z-score),[20],-0.451
same,glycan array binding signal (z-score),Neu5Ac(a2-6)Gal,0.153
same,glycan array binding signal (z-score),[21],-2.08
same,glycan array binding signal (z-score),Neu5Ac(a2-6)Gal(b1-4)Glc,-0.721
same,glycan array binding signal (z-score),[22],0.529
same,glycan array binding signal (z-score),[23],0.222
same,glycan array binding signal (z-score),[24],0.015
same,glycan array binding signal (z-score),[25],-0.441
same,glycan array binding signal (z-score),[26],-0.653
same,glycan array binding signal (z-score),[27],-1.16
same,glycan array binding signal (z-score),[28],-0.607
same,glycan array binding signal (z-score),[29],0.015
same,glycan array binding signal (z-score),[30],-0.389
same,glycan array binding signal (z-score),[31],-0.576
same,glycan array binding signal (z-score),[32],0.35
same,glycan array binding signal (z-score),[33],-0.694
same,glycan array binding signal (z-score),[34],-0.281
same,glycan array binding signal (z-score),[35],-0.647
same,glycan array binding signal (z-score),[36],0.256
same,glycan array binding signal (z-score),[37],-1.3
same,glycan array binding signal (z-score),[38],0.533
same,glycan array binding signal (z-score),[39],-0.373
same,glycan array binding signal (z-score),[40],-0.318
same,glycan array binding signal (z-score),[41],-0.445
same,glycan array binding signal (z-score),[42],-0.808
same,glycan array binding signal (z-score),[43],1.48

# A second format for some results above.
binder | measurement | setting | value
B1 | glycan array binding signal (z-score) | [33] | -0.694
same | glycan array binding signal (z-score) | [34] | -0.281
same | glycan array binding signal (z-score) | [35] | -0.647
same | glycan array binding signal (z-score) | [36] | 0.256
